Data: patent US12116593B2, “Method for producing adenohypophysis or precursor tissue thereof” (RIKEN, priority 2014, dated 2024)
At least one structure is not confirmed: it was looked up by name or label, or the drawing left a doubt.

System: aggregate containing GH-producing cells
Assay: In vitro GH release from aggregates containing GH-producing cells, ELISA
Format: cell-based, human
Details: somatostatin 100 ng/ml, 37° C., 90 min; day 98 aggregates
Procedure: In addition to the method of Example 10, in vitro hormone secretory capacity was analyzed using the aggregate containing GH-producing cells differentiated in a medium containing hydrocortisone (1 μg/ml) from days 72 to 84 of culture. Using a 1.5 ml Eppendorf tube containing 500 μl of HBSS containing 33 aggregates at day 84 of culture, the aggregates were incubated in the presence or absence of GRF (100 ng/ml) at 37° C. for 30 min. The concentration of GH in the culture supernatant was quantified by the ELISA method.
In addition to the method of Example 10, in vitro hormone secretory capacity was analyzed using the aggregate containing GH-producing cells differentiated in a medium containing dexamethasone (40 ng/ml) from days 70 to 84 of culture. Using a 1.5 ml Eppendorf tube containing 750 μl of a medium containing 30 aggregates at day 84 of culture, the aggregates were incubated in the presence of GRF (0.1, 1, 10 μg/ml) at 37° C. for 30 min. The concentration of GH in the culture supernatant was quantified by the ELISA method. In addition, in order to investigate a potential of somatostatin to suppress GH secretion, 18 aggregates at day 98 of culture were incubated in the presence or absence of somatostatin (100 ng/ml) at 37° C. for 90 min, and effects on GH release after GRF treatment were analyzed.

Structure (SMILES): C[C@H](N)C(=O)NCC(=O)N[C@H]1CSSC[C@@H](C(=O)O)NC(=O)[C@H](CO)NC(=O)[C@H]([C@@H](C)O)NC(=O)[C@H](Cc2ccccc2)NC(=O)[C@H]([C@@H](C)O)NC(=O)[C@H](CCCCN)NC(=O)[C@H](Cc2c[nH]c3ccccc23)NC(=O)[C@H](Cc2ccccc2)NC(=O)[C@H](Cc2ccccc2)NC(=O)[C@H](CC(N)=O)NC(=O)[C@H](CCCCN)NC1=O [somatostatin]
- GH concentration after GRF treatment relative to preincubation without somatostatin: about one-fourth
